Measured values reported in PubChem BioAssay AID306 (DTP/NCI, 2004).
The list shows only some results of the screen, not a fair sample: it covers a few groups of compounds. Not every dose and run of a compound is shown. T/C gives the treated animals as a percentage of the vehicle group. Some doses have a count of surviving animals in place of a T/C: the source holds a T/C of zero for them, seemingly a mark for toxic or unscored doses. Some doses without a T/C left all or most animals alive at the check, yet need not have been tolerated: survival well below the control is almost never listed, so the zero probably covers shortened survival too. Survivors were counted at the toxicity check, usually on the fifth day, unless a day is given; later deaths do not show. Schedule codes are those of the source, taken here to give the interval after Q, in days (D) or hours (H), and the number of doses after X. Some schedules carry Z or #; the key to these is not given. Where survival is the endpoint, this PubChem deposit counts one and a half times the control or more as active, and values a quarter to a half above the control carry no call in these data; other NCI protocols may use other cut-offs. Additions like (4×) count equal records among those shown. Some entries were tested several times; the results are listed from low to high. Some T/C values are followed by the survivors on the day toxicity was checked, most often the fifth; where neither a count nor a note follows, no animal had died by that day.

Tested on: BDF1 mice, L1210 Methyl-GAG-resistant leukemia, survival T/C
Experiment: NCI In Vivo Anticancer Drug Screen. Data for tumor model L1210 Leukemia resistant to Methyl-GAG; NSC 32946 (subcutaneous) in B6D2F1 (BDF1) mice
Conditions: T/C endpoint: mean survival time, schedule: Q01DX Z (ip), higher T/C = longer survival
Method: The antitumor activity of compounds was measured in mice bearing transplantable tumors. Survival or tumor size were measured and the results are expressed as the measurement made in the treated group (T) divided by the measurement made in the vehicle treated control group (C). The tumor model used in this assay is L1210 Leukemia resistant to Methyl-GAG; NSC 32946 (subcutaneous) in B6D2F1 (BDF1) mice

Structure (SMILES): OC(CNCCCl)C(O)C(O)C(O)CNCCCl (stereo not given)
- T/C (dose: 12.5 mg/kg/injection, vehicle: saline): 100 % of control
- T/C (dose: 25.0 mg/kg/injection, vehicle: saline): 108 % of control
- T/C (dose: 50.0 mg/kg/injection, vehicle: saline): 102 % of control [5 of 6 alive]
- survivor count (dose: 100.0 mg/kg/injection, vehicle: saline): 6 of 6

Structure (SMILES): Cc1[nH]c(=O)[nH]c(=O)c1N(CCCl)CCCl
- T/C (dose: 0.25 mg/kg/injection, vehicle: carboxymethylcellulose (CMC)): 100 % of control
- T/C (dose: 0.5 mg/kg/injection, vehicle: carboxymethylcellulose (CMC)): 107 % of control
- T/C (dose: 1.0 mg/kg/injection, vehicle: carboxymethylcellulose (CMC)): 108 % of control
- T/C (dose: 2.0 mg/kg/injection, vehicle: carboxymethylcellulose (CMC)): 118 % of control
- survivor count (dose: 4.0 mg/kg/injection, vehicle: carboxymethylcellulose (CMC)): 6 of 6
- survivor count (dose: 8.0 mg/kg/injection, vehicle: carboxymethylcellulose (CMC)): 2 of 6
- survivor count (dose: 16.0 mg/kg/injection, vehicle: carboxymethylcellulose (CMC)): 0 of 6

Structure (SMILES): CN(N=O)C(=N)N[N+](=O)[O-]
- T/C (dose: 9.4 mg/kg/injection, vehicle: carboxymethylcellulose (CMC)): 93 % of control
- T/C (dose: 18.75 mg/kg/injection, vehicle: carboxymethylcellulose (CMC)): 91 % of control
- T/C (dose: 37.5 mg/kg/injection, vehicle: carboxymethylcellulose (CMC)): 95 % of control
- survivor count (dose: 75.0 mg/kg/injection, vehicle: carboxymethylcellulose (CMC)): 0 of 6

Structure (SMILES): CC[C@H](C)[C@@H]1NC(=O)/C(=C(\C)O)C1=O
- T/C (dose: 3.1 mg/kg/injection, vehicle: water): 101 % of control
- T/C (dose: 6.25 mg/kg/injection, vehicle: water): 103 % of control (2×)
- T/C (dose: 12.5 mg/kg/injection, vehicle: water): 100 and 103 % of control
- T/C (dose: 25.0 mg/kg/injection, vehicle: water): 105 and 106 % of control
- T/C (dose: 50.0 mg/kg/injection, vehicle: water): 93 % of control [4 of 6 alive]
